According to PubChem BioAssay AID504467 (National Center for Advancing Translational Sciences (NCATS), 2011):
Hit rate of the full screen: of about 330,000 compounds, about 7,700 (2.3%) were called active. The shares of active, inactive and inconclusive entries below differ from those in the screen. Calls follow the shape of the dose curve; as a rule, active = well fitted inhibition curve with a large enough effect; inconclusive = small, poorly fitted or top-dose-only effect, or effect the other way; inactive = flat fitted curve, though single readings scatter. Where the call is inconclusive, the potency comes from a doubtful curve fit.

test: qHTS screen for small molecules that inhibit ELG1-dependent DNA repair in human embryonic kidney (HEK293T) cells expressing luciferase-tagged ELG1; conditions: HEK293T ELG1-luciferase reporter, luminescence, 16 h, DNA damage induced by 5-fluorouridine; series mostly up to 46.1 µM; also: nearly all actives have a fitted effect of over 55% in size
Outline: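 Reporter activity after DNA damage by 5-fluorouridine is monitored. Compound-treated cells incubate 16 hr at 37 °C, then ONE-Glo is added for 30 min before luminescence reading.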
Potency is read from the fitted curve at half-maximal effect.

| SMILES | Potency |
| --- | --- |
| CCn1c(SCC(=O)Nc2ccccc2N2CCOCC2)nnc1-c1ccccc1 | inactive |
| Cc1cccc(-n2c(SCC(N)=O)nc3c(c2=O)C2(CCCCC2)Cc2ccccc2-3)c1 | inconclusive: 14.6 µM [inhibitor, partial curve, poor fit] |
| COC(=O)c1ccc(NC(=S)NC(=O)C2CCC2)cc1 | inconclusive: 10.3 µM [activator, partial curve, poor fit] |
| COc1ccccc1C(=O)N1CCN(Cc2nc3cc([N+](=O)[O-])ccc3n2C)CC1 | inconclusive: 16.4 µM [inhibitor, single point] |
| O=C(Nc1ccc(F)c(F)c1)c1ccc(-n2cncn2)c([N+](=O)[O-])c1 | inconclusive: 18.3 µM [inhibitor, single point] |
| Brc1cccc(Nc2nc(-c3cccnc3)cs2)c1 | inconclusive: 9.2 µM [activator, partial curve] |
| CCC(C)(C)NC(=O)C(c1ccc(OC)cc1)N(C(=O)CCC(=O)Nc1cc(C)on1)c1cccc(F)c1 (centres undefined) | inactive |
| Cc1cc(Cl)ccc1OCC(=O)N1CCCCC1 | inconclusive: 23.1 µM [activator, partial curve] |
| O=C(CCc1ccccc1)NC1(Cc2ccccc2)CCN(CCCc2ccccc2)C1=O (centres undefined) | inconclusive: 16.4 µM [inhibitor, single point] |
| COc1ccc(OC)c(-c2cc(C(=O)Nc3c(C)nn(Cc4ccccc4)c3C)no2)c1 | inconclusive: 18.4 µM [inhibitor, single point] |
| O=C(Cc1ccccc1F)Nc1nc(-c2ccc(F)c(F)c2)cs1 | inactive |
| CC1CC(C)CN(S(=O)(=O)c2ccc(C(=O)Nc3sccc3C(N)=O)cc2)C1 (centres undefined) | inconclusive: 20.6 µM [inhibitor, single point] |
| CCOC(=O)N1CCC(NC(=O)c2ccc3c(c2)N(Cc2ccc(C)cc2)CCS3)CC1 | inconclusive: 18.4 µM [inhibitor, single point] |
| O=C(COc1ccc2c3c(c(=O)oc2c1)CCC3)NCC1CCC(C(=O)O)CC1 (centres undefined) | inactive |
| CCOc1ccc2c(c1)C(c1ccc(C)cc1)=NNC(c1ccc(C)cc1)=N2 | inconclusive: 2.31 µM [activator, partial curve] |
| COc1ccc(-c2ccc(C(C)=O)cc2)cc1[C@H]1[C@@H]2C=CCC[C@@]2(C)C(=O)N1Cc1ccccc1 | active: 20.6 µM |
| Cc1c(C(=O)NC(c2ccccn2)C(F)(F)F)oc2c(F)cccc12 (centres undefined) | inconclusive: 13 µM [activator, partial curve, poor fit] |
| COc1ccc(S(=O)(=O)N2CCN(C/C=C/c3ccccc3)CC2)cc1F | inconclusive: 20.6 µM [inhibitor, single point] |
| COc1ccc(-c2cc(-c3ccc(C)cc3)nc(SCc3nnc(-c4ccccc4)o3)c2C#N)cc1OC | active: 2.91 µM |
| CC#CCN(Cc1ccco1)C(=O)c1ccc(OC2CCN(Cc3ccccn3)CC2)cc1 | inactive |
| CC(=O)c1c(C)[nH]c(C(=O)OCc2nnc(-c3ccc([N+](=O)[O-])cc3)o2)c1C | inconclusive: 11.6 µM [inhibitor, partial curve, poor fit] |
| COc1ccc(C2CC(c3cccs3)=NN2C(=O)CCC(=O)O)cc1 (centres undefined) | inactive |

An excerpt from above in order of formula weight, high to low.

| SMILES | Potency |
| --- | --- |
| CC#CCN(Cc1ccco1)C(=O)c1ccc(OC2CCN(Cc3ccccn3)CC2)cc1 | inactive |
| O=C(CCc1ccccc1)NC1(Cc2ccccc2)CCN(CCCc2ccccc2)C1=O (centres undefined) | inconclusive: 16.4 µM [inhibitor, single point] |
| O=C(Cc1ccccc1F)Nc1nc(-c2ccc(F)c(F)c2)cs1 | inactive |

Continuation.

| SMILES | Potency |
| --- | --- |
| CCCn1c(=N)c(C(=O)NC2CCCC2)cc2c(=O)n3cccc(C)c3nc21 | inconclusive: 29.1 µM [inhibitor, single point] |
| CC12CCC(C(=O)N3CCN(c4ncccn4)CC3)(c3nc4ccccc4nc31)C2(C)C (centres undefined) | active: 4.11 µM |
| CS(=O)(=O)N1CCN=C1SCc1ccc(F)cc1 | inconclusive: 18.3 µM [activator, partial curve, poor fit] |
| COc1ccc(C(=O)C2CCN(CC(=O)Nc3ccc(OC)cc3OC)CC2)cc1 | inconclusive: 20.6 µM [inhibitor, partial curve, poor fit] |
| O=C1/C(=C/c2ccccc2F)SC(=S)N1CCC(=O)N1CCCCC1CCO (centres undefined) | inactive |
| COc1cc2[nH]cc(C(=O)NCc3ccccc3)c(=O)c2cc1OC | inactive |
| COC(=O)c1sc(N2C(=O)C(O)=C(C(=O)c3ccc(C)o3)C2c2cccs2)nc1C (centres undefined) | inactive |
| CCOc1ccc(C(=O)NCC(C)CN(C)C)cc1OCC (centres undefined) | inactive |
| Cc1ccc(C(=O)C2CCN(CC(=O)NC3CCCC3)CC2)cc1 | inactive |
| COCCNC(=O)c1cc2sc3ccccc3c2s1 | inconclusive: 8.2 µM [activator, partial curve] |
| Fc1cccc(CN2CCN(c3nc4nonc4nc3NC3CC3)CC2)c1 | inactive |
| Cc1cc(NC(=O)COC(=O)[C@H](Cc2c[nH]c3ccccc23)NC(=O)c2ccc(F)cc2)no1 | inconclusive: 29.1 µM [activator, single point] |
| COC(=O)c1ccccc1NC(=S)NC(C)=O | inconclusive: 29.1 µM [activator, partial curve, poor fit] |
| COc1cc(-c2cc(-c3ccccc3)nc(SCC(=O)O)c2C#N)cc(OC)c1OC | inconclusive: 18.3 µM [activator, partial curve, poor fit] |
| O=C(NC(=S)Nc1ccc(Oc2ccccc2)cc1)c1ccc(Cl)cc1 | inactive |
| CCn1nnc(-c2ccccc2NS(=O)(=O)c2ccc(S(=O)(=O)N3CCCCCC3)cc2)n1 | inconclusive: 20.6 µM [inhibitor, single point] |
| CCOCc1nnc(NC(=O)c2ccc(OC)cc2)s1 | inconclusive: 20.6 µM [activator, partial curve] |
| COc1cccc(/C=N/Nc2ncccc2[N+](=O)[O-])c1OC | inconclusive: 0.366 µM [activator, full curve] |
| Cc1ccc(S(=O)(=O)N2CCCC2CNC(=O)C(=O)Nc2ccccc2)cc1 (centres undefined) | inconclusive: 7.3 µM [inhibitor, single point] |
| Cc1cc(C)cc(C(=O)N(c2ccccn2)C(C)c2ccco2)c1 (centres undefined) | inactive |
| Cc1cccc(/C(N)=N/OC(=O)c2ccc(Cl)cc2Cl)c1 | inconclusive: 2.06 µM [activator, full curve] |
| Cc1nc2c(c(=O)c3ccccc3n2C)c(=O)n1C1CCCCCC1 | inconclusive: 10.3 µM [activator, partial curve, poor fit] |
